About 4,300 (3.1%) of roughly 140,000 compounds were called active. The shares of active, inactive and inconclusive entries below differ from those in the screen.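 The calls were made as follows: active = readout at or below -70, meaning at least 70% loss of cells showing the perinucleolar compartment, a nuclear body marking cancer cells; inconclusive = readout between -30 and a set limit; inactive = the rest.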
Test: High Content Assay for Compounds that inhibit the Assembly of the Perinucleolar Compartment;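 also: plate controls were DMSO wells for no effect and camptothecin positive control wells for full effect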
Details: PC3M PTB-GFP, PNC prevalence imaging, 16 h; at 10 µM; active compounds read low
Procedure, shortened: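 Compounds are pinned in duplicate onto adhered PC3M cells stably expressing GFP-tagged PTB and incubated 16 h at 37 C. Cells are then fixed, nuclei stained with Hoechst, and PNC-positive cells counted.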

SMILES | activity change (PNC), negative = inhibition
CCOC(=O)c1[nH]c2ccccc2c1NC(=O)C1CCCCC1 | inconclusive: -48.8%
Cc1ccc(NC(=O)CSCC#N)cc1 | inconclusive: -42.1%
O=C(COC(=O)C1COc2ccccc2O1)Nc1ccc2c(c1)CCC2 (stereo not given) | inconclusive: -41%
CCOC(=O)C1C(=O)C=C(c2ccc(C)cc2)CC1c1cccc([N+](=O)[O-])c1 (stereo not given) | inactive: -1.03%
CC(CN(C)Cc1ccccc1)OC(=O)c1ccc(F)cc1 (stereo not given) | inconclusive: -50%
Cc1ccccc1NC(=O)CN1C(=O)C2C3CC(C(Br)C3Br)C2C1=O (stereo not given) | inactive: -16.7%
COCC(=O)Nc1cc(OC)c(Cl)cc1OC | inconclusive: -38.3%
O=S1(=O)C=C(Sc2nc3cc(Cl)ccc3o2)c2ccccc21 | inconclusive: -73.9%
COc1ccc(OC)c(-n2c(-c3cc(-c4ccc(F)cc4)n[nH]3)n[nH]c2=S)c1 | inactive: -11.5%
O=C(Nn1cnnc1)c1cc2c(s1)CCCCC2 | inactive: 40.3%
CC(=O)Nc1c(OC(C)=O)ccc2c(C)cc(=O)oc12 | inconclusive: -69.2%
O=C(CCN1CCN(C(c2ccccc2)c2ccccc2)CC1)N/N=C/c1ccc(O)cc1 | inconclusive: -65.2%
O=c1cc(C(F)(F)F)nc(-c2ccccc2)[nH]1 | inconclusive: -36.4%
Cc1cccc(N(CC(=O)Nc2ccc(CC#N)cc2)S(C)(=O)=O)c1 | active: -84.2%
CCCCC(=O)Nc1ccc2oc(-c3ccncc3)nc2c1 | inconclusive: -58.1%
CCOC(=O)Cn1nc(-c2ccc(Cl)cc2)cc1N | inconclusive: -61.9%
CCOc1cc(C(=O)N/N=C\c2cn(CC)nc2C)cc(OCC)c1OCC | inconclusive: -43.2%
O=C(C1CCN(c2nnnn2-c2ccccc2)CC1)N1CCN(c2ccccc2)CC1 | inactive: -18.8%
CN(C)S(=O)(=O)Nc1ccccc1C(N)=O | inconclusive: -57.1%
COc1ccccc1NCC(O)Cn1c2ccccc2c2ccccc21 (stereo not given) | inconclusive: -79%
Cc1ccc(C2C(C(=O)c3sc(C)nc3C)=C(O)C(=O)N2CCCN(C)C)o1 (stereo not given) | inactive: 19.9%
COc1ccc(C2C(C(=O)N3CCOCC3)CCC(=O)N2c2cc(OC)c(OC)c(OC)c2)cc1 (stereo not given) | inconclusive: -61.9%
O=C(CSc1nc2ccccc2c(=O)n1-c1ccccc1)c1c[nH]c2ccccc12 | inconclusive: -48.8%

SMILES | activity change (PNC), negative = inhibition
COc1ccc(-n2cnnc2SCC(=O)N2CCN(c3ccccc3)CC2)cc1 | inconclusive: -38.2%
Cc1cccc2c(C(=O)n3cccn3)cc(-c3ccccc3Cl)nc12 | inconclusive: -32.6%
CNc1oc(-c2ccc(OCc3ccccc3)cc2)nc1C#N | inconclusive: -45%
CCN(CC)CCN1C(=O)c2oc3ccccc3c(=O)c2C1c1ccc(F)cc1 (stereo not given) | inconclusive: -47.9%
Cc1ccc[n+](CC(=O)/C=C2\N(C)c3ccccc3C2(C)C)c1 | inconclusive: -51.2%
Cc1ccc(C(=O)Nc2nnc(SCC(=O)N3CCCc4ccccc43)s2)cc1 | inconclusive: -63.6%
CC(C)c1ccc2[nH]c(O)c(N=NC(=O)c3ccc(CSc4nncn4C)cc3)c2c1 | inconclusive: -44.6%
C/C(CC1(O)C(=O)N(Cc2ccccc2)c2ccccc21)=N\O (stereo not given) | inconclusive: -53.7%
Cc1ccc(C(=O)NNC(=O)c2cccc(S(=O)(=O)N3CCN(c4ccccc4)CC3)c2)cc1 | inconclusive: -35.1%
O=C(Nc1ccon1)c1ccc(S(=O)(=O)N2CCCCCC2)cc1 | inconclusive: -55.9%
COc1cc(C=Nc2cccc(C)c2)c(O)c([N+](=O)[O-])c1 | inconclusive: -53.5%
Cc1n[nH]c(=S)n1/N=C/c1ccccc1OCc1ccc(Cl)cc1Cl | inconclusive: -56.3%
COc1cc2oc(=O)c3c(c2cc1OCC(=O)c1c(C)n(C)c2ccccc12)CCCC3 | inconclusive: -52.2%
O=C(NCC1CCCO1)c1cccc(N2C(=O)C3C4C=CC(C4)C3C2=O)c1 (stereo not given) | inconclusive: -33.6%
O=C(CSc1nnc(-c2ccc(F)cc2)c2ccccc12)Nc1cccc(Cl)c1 | inconclusive: -35.8%
CCCC(=O)N1c2ccccc2C(=C2SC(C(=O)OC)=C(C(=O)OC)S2)C(=S)C1(C)C | inactive: 23%
C=CCN(c1ccccc1)S(=O)(=O)c1cccc(C(=O)Nc2nc3ccccc3[nH]2)c1 | inactive: -26.4%
O=C1CCCc2nn(-c3ccccc3)nc21 | active: -100%
CC(=O)Oc1cccc2c1C(=O)c1c(OC(C)=O)cc(C(=O)O)cc1C2=O | inconclusive: -37.9%
O=C1CC(C(=O)Nc2ccc(C(=O)N3CCOCC3)cc2)C2(CCCCC2)O1 (stereo not given) | inconclusive: -60.3%
CCOC(=O)c1[nH]c2c(c1C)C(=O)CC(c1ccco1)C2 (stereo not given) | active: -108%
COc1ccc(C(=O)N2CC=C(c3ccccc3)CC2)cc1S(=O)(=O)N1CCOCC1 | inconclusive: -58.4%
COc1ccc(OCC(O)CNCc2ccco2)cc1 (stereo not given) | inconclusive: -62.1%

Fetched by structure from the list above:
SMILES | activity change (PNC), negative = inhibition
C=CCN(c1ccccc1)S(=O)(=O)c1cccc(C(=O)Nc2nc3ccccc3[nH]2)c1 | inactive: -26.4%
COc1cc(C=Nc2cccc(C)c2)c(O)c([N+](=O)[O-])c1 | inconclusive: -53.5%
CC(C)c1ccc2[nH]c(O)c(N=NC(=O)c3ccc(CSc4nncn4C)cc3)c2c1 | inconclusive: -44.6%
Cc1ccc(C(=O)Nc2nnc(SCC(=O)N3CCCc4ccccc43)s2)cc1 | inconclusive: -63.6%
O=C(Nc1ccon1)c1ccc(S(=O)(=O)N2CCCCCC2)cc1 | inconclusive: -55.9%
O=C(CCN1CCN(C(c2ccccc2)c2ccccc2)CC1)N/N=C/c1ccc(O)cc1 | inconclusive: -65.2%
C/C(CC1(O)C(=O)N(Cc2ccccc2)c2ccccc21)=N\O (stereo not given) | inconclusive: -53.7%

(next part)

SMILES | activity change (PNC), negative = inhibition
CN(C)S(=O)(=O)c1ccc(Cl)c(NC(=O)COC(=O)C2CSC3(C)CCC(=O)N23)c1 (stereo not given) | inactive: -15.4%
NC(=O)CCCCC(=O)OCCCc1cccs1 | inconclusive: -50.7%
COc1ccc(CC(=O)Nc2ccc(-c3noc(-c4cc(OC)c(OC)c(OC)c4)n3)cc2)cc1 | active: -100%
Cc1ccc(NC(=S)N/N=C/c2c(Cl)cccc2Cl)c(C)c1 | active: -98.3%
COc1ccccc1S(=O)(=O)Nc1cccc(-c2nnc3n2CCCCC3)c1 | inactive: -12.6%
CCOc1ccc(/C=N/NC(=O)CN2CCSCC2)cc1 | inconclusive: -43.1%
COc1ccc(-c2nnc(SCC(=O)NC3CCCc4ccccc43)n2N)cc1 (stereo not given) | inconclusive: -43%
CCCNC(=S)Nc1ccc(Cl)cc1C | inconclusive: -38.2%
COc1ccc(CN(C(=O)c2cnccn2)C(C(=O)Nc2ccc(F)cc2)c2ccccc2)cc1 (stereo not given) | active: -95%
O=C(NCc1ccco1)c1cc2n(n1)C(C(F)(F)F)CC(c1ccc(Br)cc1)N2 (stereo not given) | inconclusive: -57.3%
CC(C)C1(C(C)C)OC(=O)c2ccccc21 | inconclusive: -41.1%
CC(Cc1ccccc1)NC(=O)c1ccc([N+](=O)[O-])cc1 (stereo not given) | inconclusive: -64.4%
CC(=O)Nc1ccc(C(=O)N/N=C/c2cccnc2)cc1 | inconclusive: -44.3%
CN(C)CCCCCNCCCNC(=O)/C=N\O | inconclusive: -41.1%
Cn1cccc1/C=C1\SC(=S)N(NC(=O)c2cccc(Cl)c2)C1=O | inactive: -23.4%
CCOC(=O)c1c(C)[nH]c(C(=O)COC(=O)c2ccc(N3CCCC3=O)cc2)c1C | inconclusive: -35%
CCOC(=O)N1CCC(NC(=O)CN2C(=O)CSc3nc(C)cc(C)c32)CC1 | inconclusive: -54.9%
CCOc1ccc(OCc2ccc(C(=O)N3N=C(C(F)F)CC3(O)C(F)F)o2)cc1 (stereo not given) | inconclusive: -33.4%
CCc1sc(-c2c(C#N)c(N)nc3c2CCCCCC3)cc1[N+](=O)[O-] | inactive: 76.7%
CCOC(=O)c1cn(Cc2cccc(Cl)c2)nn1 | active: -114%
Nc1cc(-c2nn[nH]n2)ccc1F | inactive: 25.8%
CCCn1c(=O)c2c(C(F)(F)F)cc(-c3ccco3)nc2n(CCC)c1=O | inconclusive: -34.9%
Cc1ccc(C2NC(=O)NC(O)(C(F)(F)F)C2C(=O)c2cccs2)o1 (stereo not given) | inactive: -27.4%

SMILES | activity change (PNC), negative = inhibition
COc1ccc(-n2c(Cc3ccccc3)nnc2SCC(=O)N2CCCc3ccccc32)cc1 | active: -100%
COc1ccc(CCNC(=O)c2noc3c2CCCC3)cc1OC | inconclusive: -50.8%
O=C(/C=C/c1cc2c(cc1Br)OCO2)NCc1ccc(Cl)cc1 | inconclusive: -38%
O=C(NCCN1CCN(c2ccccc2)CC1)c1cccn2c(=O)c3ccccc3nc12 | inactive: 22.3%
CC(C)CC(=O)NCCCCc1ccccc1 | inconclusive: -60.1%
O=C(COc1ccccc1Cl)N1CCCC1 | inconclusive: -36.6%
COc1ccc(Nc2nc(C)c3ccccc3n2)cc1 | inconclusive: -47.3%
CCOC(=O)CSc1nc2cc(C(=O)OC)ccc2c(=O)n1CCN1CCOCC1 | inconclusive: -42.2%
COc1ccccc1NS(=O)(=O)c1cc(NC(=O)CNC(=O)c2ccccc2)ccc1C | inactive: 38.2%
COc1ccc(N(C(=O)COc2ccccc2)C2C=CS(=O)(=O)C2)cc1 (stereo not given) | inactive: 16.9%
Cc1c(N=Cc2nc3ccccc3[nH]2)c(=O)n(-c2ccccc2)n1C | inactive: -14.8%
CCS(=O)(=O)N1CCN(c2ccc(C(=O)NC3C4CC5CC(C4)CC3C5)cc2[N+](=O)[O-])CC1 (stereo not given) | inactive: -12.9%
CC1SC(C)C(=O)N(CC(=O)NCc2ccc(F)cc2)C1=O (stereo not given) | inconclusive: -34.5%
O=C(COc1ccc(F)cc1)NNC(=O)c1cc2ccccc2oc1=O | active: -87.6%
Cc1cc(C(=O)Nc2nc(C)c(C(=O)N(C)C)s2)ccc1[N+](=O)[O-] | inactive: 3.63%
Cc1nc(SCC(=O)O)c2oc3ccccc3c2n1 | inactive: -15.2%
Cc1cnn(C(=O)c2cc(-c3ccccc3)nc3ccccc23)c1 | inconclusive: -50%
O=S(=O)(NC1=NCCCCC1)c1ccc2ccccc2c1 | inactive: 3.58%
O=C(O)c1n[nH]c2ccccc12 | inactive: -26.8%
Cc1cc(Nc2ccc(Cl)cc2)n(-c2ccccc2)n1 | inactive: -14.4%
COc1ccc(OC)c(C(c2nnnn2C2CCCC2)N2CCN(c3ccccc3F)CC2)c1 (stereo not given) | inconclusive: -40%

Source: PubChem BioAssay AID2417 (National Center for Advancing Translational Sciences (NCATS), 2010)
